# Test results from the supplement of paper PMC8728848.
# Some of the results follow.
# B1: SP15308C-bot-338-23-338 (Bacteroides ovatus) (protein)
# chain: DEWTDEQFKQLISFKTQPGGWGVTDVHVRYANSAKYTYNLPVLVSGSTDNTDDRLVSFSLRDDTLDILNFEKFGNRPELYFRELPQKYYSFPKELTIPAGQSHALLPIEFSLDGLDDSQKWALPLKVCEDANGTYAVNPRKYYRTAVLRPILFNEFSGRFSGSSLLGTMAGESDIKFSSTEIKLNVVTDSIVFFYAGQRTEDYEDRINYKVFLQFTGDKVDSKKDLYKMKIWAENEKLKFNSYSTPTYKVSSEMDATKTYLKHTYIVISDIDFDFVDYTSVPNYEIEYNMKGGLSVSRDLDTRKPDEDQGSDSKWW
# Experiments:
# Assay in all cases: glycan array binding signal (z-score within array); higher = stronger binding
# Settings in all cases: glycan notation: IUPAC condensed, linker removed
# [1] = target: Gal(a1-3)Gal
# Summary of the method: (§1)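 Arrays were curated from the Consortium for Functional Glycomics database, 3228 in total, and kept only where the protein sequence was available. Binding is expressed as a within-array Z-score. This score was averaged across arrays of the same protein sequence at different concentrations or buffers and across linkers, and negative values can be read as non-binding.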
# [2] = target: Gal(a1-3)Gal(b1-3)GlcNAc
# Summary of the method: as §1
# [3] = target: Gal(a1-3)Gal(b1-3)GlcNAc(b1-2)Man
# Summary of the method: as §1
# [4] = target: Gal(a1-3)Gal(b1-3)GlcNAc(b1-2)Man(a1-3)[Gal(a1-3)Gal(b1-3)GlcNAc(b1-2)Man(a1-6)]Man(b1-4)GlcNAc(b1-4)GlcNAc
# Summary of the method: as §1
# [5] = target: Gal(a1-3)Gal(b1-3)GlcNAc(b1-3)GalNAc
# Summary of the method: as §1
# [6] = target: Gal(a1-3)Gal(b1-3)GlcNAc(b1-6)GalNAc
# Summary of the method: as §1
# [7] = target: Gal(a1-3)Gal(b1-3)[Fuc(a1-4)]GlcNAc(b1-2)Man(a1-3)[Gal(a1-3)Gal(b1-3)[Fuc(a1-4)]GlcNAc(b1-2)Man(a1-6)]Man(b1-4)GlcNAc(b1-4)GlcNAc
# Summary of the method: as §1
# [8] = target: Gal(a1-3)Gal(b1-4)Glc
# Summary of the method: as §1
# [9] = target: Gal(a1-3)Gal(b1-4)GlcNAc
# Summary of the method: as §1
# [10] = target: Gal(a1-3)Gal(b1-4)GlcNAc(b1-2)Man
# Summary of the method: as §1
# [11] = target: Gal(a1-3)Gal(b1-4)GlcNAc(b1-2)Man(a1-3)[Gal(a1-3)Gal(b1-4)GlcNAc(b1-2)Man(a1-6)]Man(b1-4)GlcNAc(b1-4)GlcNAc
# Summary of the method: as §1
# [12] = target: Gal(a1-3)Gal(b1-4)GlcNAc(b1-3)GalNAc
# Summary of the method: as §1
# [13] = target: Gal(a1-3)Gal(b1-4)GlcNAc(b1-6)GalNAc
# Summary of the method: as §1
# [14] = target: Gal(a1-3)Gal(b1-4)[Fuc(a1-3)]GlcNAc
# Summary of the method: as §1
# [15] = target: Gal(a1-3)Gal(b1-4)[Fuc(a1-3)]GlcNAc(b1-2)Man(a1-3)[Gal(a1-3)Gal(b1-4)[Fuc(a1-3)]GlcNAc(b1-2)Man(a1-6)]Man(b1-4)GlcNAc(b1-4)GlcNAc
# Summary of the method: as §1
# [16] = target: Gal(a1-3)GalNAc
# Summary of the method: as §1
# [17] = target: Gal(a1-3)[Gal(a1-4)]Gal(b1-4)GlcNAc
# Summary of the method: as §1
# [18] = target: Gal(a1-4)Gal(b1-3)GlcNAc(b1-2)Man(a1-3)[Gal(a1-4)Gal(b1-3)GlcNAc(b1-2)Man(a1-6)]Man(b1-4)GlcNAc(b1-4)GlcNAc
# Summary of the method: as §1
# [19] = target: Gal(a1-4)Gal(b1-4)Glc
# Summary of the method: as §1
# [20] = target: Gal(a1-4)Gal(b1-4)GlcNAc
# Summary of the method: as §1
# [21] = target: Gal(a1-4)Gal(b1-4)GlcNAc(b1-2)Man(a1-3)[Gal(a1-4)Gal(b1-4)GlcNAc(b1-2)Man(a1-6)]Man(b1-4)GlcNAc(b1-4)GlcNAc
# Summary of the method: as §1
# [22] = target: Gal(a1-4)Gal(b1-4)GlcNAc(b1-3)Gal(b1-4)Glc
# Summary of the method: as §1
# [23] = target: Gal(a1-4)GlcNAc
# Summary of the method: as §1
# [24] = target: Gal(a1-6)Glc
# Summary of the method: as §1
# [25] = target: Gal(b1-2)Gal
# Summary of the method: as §1
# [26] = target: Gal(b1-3)Gal
# Summary of the method: as §1
# [27] = target: Gal(b1-3)Gal(b1-4)GlcNAc
# Summary of the method: as §1
# [28] = target: Gal(b1-3)GalNAc
# Summary of the method: as §1
# [29] = target: Gal(b1-3)GalNAc(a1-3)[Fuc(a1-2)]Gal(b1-4)Glc
# Summary of the method: as §1
# [30] = target: Gal(b1-3)GalNAc(a1-3)[Fuc(a1-2)]Gal(b1-4)GlcNAc
# Summary of the method: as §1
# [31] = target: Gal(b1-3)GalNAc(b1-3)Gal
# Summary of the method: as §1
# [32] = target: Gal(b1-3)GalNAc(b1-3)Gal(a1-4)Gal(b1-4)Glc
# Summary of the method: as §1
# [33] = target: Gal(b1-3)GalNAc(b1-4)Gal(b1-4)Glc
# Summary of the method: as §1
# [34] = target: Gal(b1-3)GalNAc(b1-4)[Neu5Ac(a2-3)]Gal(b1-4)Glc
# Summary of the method: as §1
# [35] = target: Gal(b1-3)GlcNAc
# Summary of the method: as §1
# [36] = target: Gal(b1-3)GlcNAc(a1-3)Gal(b1-4)GlcNAc
# Summary of the method: as §1
# [37] = target: Gal(b1-3)GlcNAc(a1-6)Gal(b1-4)GlcNAc
# Summary of the method: as §1
# [38] = target: Gal(b1-3)GlcNAc(b1-2)Man
# Summary of the method: as §1
binder,measurement,setting,value
B1,glycan array binding signal (z-score),[1],-0.425
same,glycan array binding signal (z-score),[2],-0.328
same,glycan array binding signal (z-score),[3],-0.735
same,glycan array binding signal (z-score),[4],0.799
same,glycan array binding signal (z-score),[5],-0.385
same,glycan array binding signal (z-score),[6],-0.133
same,glycan array binding signal (z-score),[7],1.4
same,glycan array binding signal (z-score),[8],-0.449
same,glycan array binding signal (z-score),[9],-0.307
same,glycan array binding signal (z-score),[10],-0.133
same,glycan array binding signal (z-score),[11],1.04
same,glycan array binding signal (z-score),[12],-0.787
same,glycan array binding signal (z-score),[13],-0.105
same,glycan array binding signal (z-score),[14],-0.613
same,glycan array binding signal (z-score),[15],1.61
same,glycan array binding signal (z-score),[16],-0.116
same,glycan array binding signal (z-score),[17],0.116
same,glycan array binding signal (z-score),[18],0.41
same,glycan array binding signal (z-score),[19],-0.364
same,glycan array binding signal (z-score),[20],0.064
same,glycan array binding signal (z-score),[21],1.31
same,glycan array binding signal (z-score),[22],-0.013
same,glycan array binding signal (z-score),[23],-0.707
same,glycan array binding signal (z-score),[24],-0.447
same,glycan array binding signal (z-score),[25],0.547
same,glycan array binding signal (z-score),[26],-0.335
same,glycan array binding signal (z-score),[27],0.073
same,glycan array binding signal (z-score),[28],-0.422
same,glycan array binding signal (z-score),[29],0.351
same,glycan array binding signal (z-score),[30],-0.728
same,glycan array binding signal (z-score),[31],-0.623
same,glycan array binding signal (z-score),[32],0.583
same,glycan array binding signal (z-score),[33],-0.1
same,glycan array binding signal (z-score),[34],0.31
same,glycan array binding signal (z-score),[35],-0.245
same,glycan array binding signal (z-score),[36],-0.096
same,glycan array binding signal (z-score),[37],0.802
same,glycan array binding signal (z-score),[38],0.037

# No new results follow: entries from further up.
binder,measurement,setting,value
B1,glycan array binding signal (z-score),[5],-0.385
same,glycan array binding signal (z-score),[6],-0.133
